# Laboratory results from the supplement of paper PMC3334620.
# In all, about 33,000 sequences were measured (“E-score (-0.5 to 0.5)”: median about -0.015, highest 2% from about 0.3 on). Some of the results follow.
# Biological target: T1, Abf1 (UniProt P14164)
# T1 sequence: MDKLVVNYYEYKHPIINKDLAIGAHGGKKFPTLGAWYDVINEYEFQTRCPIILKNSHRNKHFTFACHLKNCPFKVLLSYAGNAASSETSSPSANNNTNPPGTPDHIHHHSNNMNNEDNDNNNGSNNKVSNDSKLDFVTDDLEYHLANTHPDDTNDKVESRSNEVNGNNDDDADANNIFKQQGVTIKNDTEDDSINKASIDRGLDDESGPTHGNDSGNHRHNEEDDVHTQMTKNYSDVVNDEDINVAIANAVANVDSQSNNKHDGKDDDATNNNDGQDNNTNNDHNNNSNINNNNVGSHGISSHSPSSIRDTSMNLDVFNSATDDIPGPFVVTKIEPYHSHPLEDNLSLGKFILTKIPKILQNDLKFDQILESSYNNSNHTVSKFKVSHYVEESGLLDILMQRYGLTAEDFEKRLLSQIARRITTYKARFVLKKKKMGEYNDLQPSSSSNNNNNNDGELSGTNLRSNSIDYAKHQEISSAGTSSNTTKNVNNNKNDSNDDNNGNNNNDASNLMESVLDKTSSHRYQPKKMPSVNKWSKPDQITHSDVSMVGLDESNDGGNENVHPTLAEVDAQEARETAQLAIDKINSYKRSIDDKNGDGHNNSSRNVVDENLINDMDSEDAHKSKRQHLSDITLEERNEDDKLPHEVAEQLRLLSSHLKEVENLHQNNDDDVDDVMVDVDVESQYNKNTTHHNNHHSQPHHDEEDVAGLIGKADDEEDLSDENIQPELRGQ
# Assay: PBM E-score (8-mer binding enrichment) (E-score (-0.5 to 0.5)); higher = stronger / more preferred TF binding
# Conditions: protein concentration: 200 nM; construct: GST-full length
# Protocol: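 Universal 'all 10-mer' protein binding microarrays (Agilent AMADID 015681) probed with GST-tagged S. cerevisiae TFs (full-length or DBD) made by in vitro transcription/translation (PURExpress), about 100-200 nM. Bound TF was detected with fluorescent anti-GST. Each ungapped 8-mer (which stands for itself and its reverse complement) is scored by the PBM enrichment score (E-score), a modified Wilcoxon-Mann-Whitney statistic from -0.5 to +0.5, computed with the Universal PBM Analysis Suite. Scale: above 0.35 generally sequence-specific binding.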
row,Sequence,PBM E-score
1,GACACGGA,0.167
2,AGAACGCT,-0.0434
3,GAGATACA,0.146
4,AGGATCAG,-0.28
5,CTGCAATA,-0.019
6,TTCCAGAA,-0.0293
7,CTTACCCA,-0.185
8,GATAGGAA,0.0434
9,TGTGACAA,0.221
10,GGATTACC,-0.197
11,ACTTCAGC,-0.124
12,ATCCTAAG,0.0143
13,ACAGCAAC,0.134
14,GTTTCCTA,-0.019
15,CATTGTAC,0.0707
16,CGTATCAC,0.281
17,AAAACGGA,0.132
18,AAAGACGT,0.209
19,CATGGTAG,-0.0639
20,GATACAAA,0.191
21,CAGCGGGG,-0.211
22,ACTTTTAG,0.115
23,TGTTAACA,-0.166
24,CATCTAGA,-0.012
25,GGATATAA,0.298

row,Sequence,PBM E-score
1,CCTACCCA,-0.0556
2,ATGGTCGC,-0.0347
3,CATTGGCC,-0.225
4,ACGTGTCG,0.0554
5,GATTCGGA,0.096
6,GCTAGGAC,-0.205
7,TCCCTCAA,-0.144
8,CCATGATA,0.126
9,AGAGACCT,-0.0443
10,ATACTCAG,0.106
11,GTGCACCA,-0.132
12,ACATAAGC,-0.0854
13,ACACACAT,0.0467
14,GACTCTCA,-0.0261
15,GCCTCGGA,-0.182
16,CAGTTGAG,-0.16
17,AGATCACT,0.437
18,GGTTCTTA,0.0253
19,ACACAGCC,0.00017
20,GCTGCGAA,0.054
21,CGACACAA,-0.0728
22,AATCACAT,0.157
23,AAGTACTT,-0.0461
24,AGGTCGTC,0.208
25,TACGTCTA,0.0776

row,Sequence,PBM E-score
1,CAGATAGC,-0.224
2,GGCCGGGA,0.0147
3,ATGGTTCA,-0.00066
4,ATTGACAC,-0.12
5,AAATCTGC,-0.0123
6,GCTCGCCC,-0.13
7,CGGAAGGA,-0.238
8,ACTGATAC,-0.00711
9,AACCCGTA,-0.156
10,CTGAGCGC,-0.0613
11,AAGGAGTC,-0.211
12,GATAACTA,0.202
13,CTAGCATA,-0.0264
14,AAAATGCC,0.173
15,AAATGGTA,0.145
16,CTTGATCC,-0.0509
17,GTTCACAA,0.177
18,CCTTAGAA,-0.109
19,GATGCAAA,-0.124
20,CGAGCTAA,-0.116
21,AGGCCTAT,-0.124
22,GCTAATGA,0.138
23,GCTGAGAC,-0.0657
24,ACACTTGC,-0.0133
25,GTATAACA,0.203

row,Sequence,PBM E-score
1,AGACGGCT,-0.0258
2,GCCGGGTA,-0.118
3,GCTGGAGA,-0.0857
4,AACATCCT,-0.103
5,GGCGTGAC,0.137
6,GATGCCGA,0.0182
7,AAACCGGT,-0.0782
8,CCGGTTCA,-0.0583
9,CGTCCGGC,-0.0786
10,GAAGAGGC,-0.196
11,ATCCAACC,-0.0316
12,AGCGTAGG,-0.163
13,GCGGTCCA,-0.217
14,GAGGTCAA,-0.0287
15,TCTGGCAA,0.0171
16,AAAAAATA,0.142
17,AGTTCTCA,0.0633
18,TATACCAA,0.00425
19,GTATTGAA,0.108
20,CGGCGAAG,0.0243
21,CGCGCGTA,-0.0596
22,AACAAATC,0.171
23,TGTCTCAA,0.076
24,GTCTACCA,-0.0632
25,AGGTTATG,-0.0367

row,Sequence,PBM E-score
1,GCTATCAA,0.0368
2,GAAGCTAA,-0.0134
3,AGCTCGAT,-0.0739
4,GATCTGGA,-0.0747
5,ACAGTATA,-0.0162
6,CTGTAAAA,-0.0504
7,GCTACTCC,-0.258
8,ACAAACTA,0.123
9,ATTCTTAG,-0.145
10,GGCATCTA,0.0789
11,GGACGTCA,0.0888
12,CCCCCGTC,0.0124
13,AATTCTCG,0.162
14,ACACCCTG,-0.0552
15,GGCATGAA,-0.0305
16,AATGCAAA,0.111
17,GATTAACC,-0.142
18,CCGCGTCC,-0.0279
19,AATGTAAT,0.222
20,AGAACGCC,-0.201
21,CCGGCGAA,-0.102
22,CGGTCCCA,-0.0145
23,ACCCTGTC,-0.17
24,AGTAAGTA,0.182
25,AATCCGGG,-0.261

row,Sequence,PBM E-score
1,AGGCACTC,-0.109
2,CGGCTACA,-0.213
3,GCTTTTCA,-0.0944
4,CTCTCCCC,-0.158
5,CGTCACGA,0.336
6,AATGTTGT,0.0602
7,GTCACGTA,0.158
8,CTCGCGAG,-0.232
9,AATAGATA,0.0138
10,ATGGTCTC,0.00673
11,ATCGAGCA,-0.0798
12,ACTGGTTC,-0.023
13,CCGCTGCG,-0.115
14,GGAGCCAC,-0.32
15,ACTATTAT,0.199
16,CAAATGGG,-0.163
17,CGCAGGCA,-0.0438
18,ATACGTAA,0.24
19,CCAACCAG,-0.184
20,CACGCCGA,-0.258
21,GTTCCACA,-0.0914
22,GGGCACCA,-0.229
23,CGGTCGCA,-0.0853
24,CTCTCTAC,0.0181
25,CCGACACG,0.0415

row,Sequence,PBM E-score
1,ATGGGTGA,0.105
2,GATTATCC,0.152
3,CCACGGGA,0.109
4,CACCCACA,0.0828
5,AGGTACAC,-0.264
6,TAGACCCA,-0.182
7,ACTGTAGC,-0.0903
8,AAAAAAAA,0.0335
9,CTCTAGCA,-0.173
10,CGGCCGTA,0.235
11,AATCTTGG,-0.121
12,AGGAAGGG,-0.233
13,TCCTCCCA,0.0342
14,CAGTGAGC,-0.118
15,CCGCCAGG,-0.169
16,TGCGACAA,0.0936
17,GAAGAAGC,-0.173
18,AGGGGTTG,-0.0576
19,ATGGTACA,-0.0607
20,ACCCGAAC,0.0408
21,GGAGCCAA,-0.227
22,GCCGGGGA,-0.121
23,AACGCGGA,0.00035
24,GCTACTAA,-0.0302
25,ATAGCATA,0.104

# Reformatted with bars between the fields: part of the list above.
row | Sequence | PBM E-score
4 | CACCCACA | 0.0828
5 | AGGTACAC | -0.264

# The listing continues:

row,Sequence,PBM E-score
1,CGCCCCCA,-0.429
2,ATTAGGGG,-0.206
3,ACGAGACT,0.199
4,AAGGAGAT,-0.226
5,CTAGCAAA,0.0908
6,AAGCCACT,-0.0712
7,ACCCCTCC,-0.388
8,AAGCAGAA,-0.0143
9,CCTAGTGC,-0.0101
10,AATTGGGC,-0.0883
11,CCGCAGGC,-0.0707
12,CATTCGAC,0.143
13,ACCCTACA,-0.153
14,AACGTCTG,0.0634
15,GAAAGCTA,-0.129
16,AGACAGTA,-0.0597
17,AGGGGTAG,-0.239
18,GATTTTCA,0.216
19,AATCCTAA,-0.147
20,TCCACAAA,0.00476
21,ACTCAACT,-0.00532
22,AATATCAT,0.391
23,GGAATCCA,0.0505
24,ACGATTTA,0.295
25,ACGTATGA,0.332

# Exported with bars between the fields: part of the list above.
row | Sequence | PBM E-score
17 | GTTCACAA | 0.177
18 | CCTTAGAA | -0.109

# More results.

row,Sequence,PBM E-score
1,GGTAACGA,0.166
2,TGAATGCA,0.0373
3,CGTTCCCC,-0.0832
4,CTACGGCC,0.178
5,CGGGGCAC,-0.115
6,CCGGAATC,-0.0839
7,CCGCAACC,-0.244
8,AGAGGGAA,-0.12
9,AATCGTTG,0.162
10,CGGCAGAG,-0.193
11,ACACATTC,0.0901
12,CACTGAGA,-0.104
13,AAATGAGA,0.101
14,AAGTCATG,0.234
15,ACCTGAAG,-0.11
16,GCGGACGA,0.276
17,AGCGCGTA,0.1
18,AAATAGGT,-0.0416
19,AGTAAACT,-0.0386

# An excerpt from the list above, for reference:
row,Sequence,PBM E-score
20,CACGCCGA,-0.258
21,GTTCCACA,-0.0914
22,GGGCACCA,-0.229
23,CGGTCGCA,-0.0853
24,CTCTCTAC,0.0181
